Laboratory results published in PMC11464796.
Results are given in words; binding and its absence hold for the method and conditions named. Binding seen in cells or lysates may run through a third protein. Some entries that bind do so weakly or less than the wild type. Sequences can lack the tags named with a protein.

Biological target: Msm RNAP-FLAG (M. smegmatis (endogenous in mc^2 155) | Mycobacterium smegmatis) (UniProt A0QSL8+P60281+A0QS66+A0QWT1)
Assay: co-IP; RNAP-FLAG captured from M. smegmatis lysate on anti-FLAG M2 agarose; exponential phase and 24, 48, 72 h (stationary); relative levels of HelD and σ^A on the RNAP core

binding: binds
B1: Msm HelD (endogenous, untagged) (protein, UniProt A0QUE0 1-736)
chain: MSGRDYEDELQSERDYVAGLYARLDAERAQSQRRYAAALREHGGTAVERDAEVRALAKDIARLNVADNGLCFGRLDTLDDARLYIGRLGIFDRDNDFEPLLLDWRAPMARPFYVATAANPENMRRRRQFHTLGRKVVDFTDEILGRPTGAEHDATNDAALLAAVNAPRGEGMRDIVATIQAEQDQVIRLDHTGVLVIEGGPGTGKTVVALHRVAYLLYTYRKQMERHGVLVVGPTPAFLDHIGRVLPSLGESDAVFMTPGDFVPGLHVTAEDTPEAAEVKGSLKILDVLKAAVADRQELPSEPIPIDLSDVTMRIDAETAKWARDEARKTGLPHNEARAEFVDVVTYVVTERAVARIGRGWLTRDDKHAWEKMRADVVGELEDHEQFNAALDALWPILTPEDVLAQLYTSHERLRAAGAPECLWRADGEAWTVSDVPLLDELVDLLGRNKAADEAAERERREEEAYAAGVLDLMVDREDLMDDEDHLLAQDLIDAEELADRFKEQDNRELSERAAADREWTYGHVVVDEAQELSEMDWRLLMRRCPRRSFTIVGDLAQRRSPAGARSWGAMLDSYVPGRWVYKSLSVNYRTPAEIMAVAAAVLAEFAPDATPPDSVRACGVAPWARQVTDDDIASAIAEFVSEEAGREGTSVVIGPPDVPGTVPPSETKGLEFDAVLVVEPERILADGPRGAAELYVALTRATQRLGVLYRDALPQALAGLAEGDAAATVEQRTSA
